Assay results reported in the supplement of paper PMC12823440, “Inhibitors supercharge kinase turnover through native proteolytic circuits” (Nature, 2025).
Where a name gives a salt, the structure may show the parent alone. The list shows a part of the results. Hit calls seldom repeat between salt and free forms of one compound.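 Kinases, fused to nanoluciferase, were expressed in K562 cells; luminescence was measured every 4 h from 2 to 18 h as percent of control (DMSO = 100%, positive control = 0%). A time point is decreased if signal falls significantly (2 sigma). Hits were called by the authors by a rule that is not shown; the count of time points alone does not decide it.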

Sequences of proteins named here, by UniProt entry; tags and fusion partners are left off. A change or cut given only in a name is not applied to a line headed by its entry.
UniProt P28482, whole entry: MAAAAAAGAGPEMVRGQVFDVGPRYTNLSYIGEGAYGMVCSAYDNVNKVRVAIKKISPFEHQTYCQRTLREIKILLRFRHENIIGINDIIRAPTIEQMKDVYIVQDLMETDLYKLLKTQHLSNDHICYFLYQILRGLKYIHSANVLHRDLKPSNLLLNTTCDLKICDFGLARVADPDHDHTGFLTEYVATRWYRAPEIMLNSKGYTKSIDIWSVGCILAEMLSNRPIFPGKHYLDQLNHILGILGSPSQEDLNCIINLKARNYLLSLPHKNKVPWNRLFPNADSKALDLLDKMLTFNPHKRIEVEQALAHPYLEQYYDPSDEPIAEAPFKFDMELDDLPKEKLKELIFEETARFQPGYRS
UniProt P31152, whole entry: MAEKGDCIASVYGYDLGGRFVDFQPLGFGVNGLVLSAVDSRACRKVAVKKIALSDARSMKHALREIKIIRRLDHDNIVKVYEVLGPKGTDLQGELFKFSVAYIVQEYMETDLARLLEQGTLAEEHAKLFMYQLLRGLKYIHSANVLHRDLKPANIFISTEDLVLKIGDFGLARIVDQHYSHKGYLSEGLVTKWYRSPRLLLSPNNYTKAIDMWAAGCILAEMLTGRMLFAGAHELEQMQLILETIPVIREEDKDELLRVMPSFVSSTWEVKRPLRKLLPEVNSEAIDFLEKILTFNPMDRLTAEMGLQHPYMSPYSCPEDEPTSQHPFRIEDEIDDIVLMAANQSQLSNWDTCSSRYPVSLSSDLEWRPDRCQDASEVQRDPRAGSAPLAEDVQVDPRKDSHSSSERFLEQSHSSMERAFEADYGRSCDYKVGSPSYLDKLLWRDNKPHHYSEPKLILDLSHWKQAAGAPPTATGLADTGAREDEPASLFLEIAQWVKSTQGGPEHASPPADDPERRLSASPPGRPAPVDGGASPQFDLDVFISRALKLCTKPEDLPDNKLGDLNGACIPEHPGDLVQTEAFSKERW
UniProt P49137, whole entry, looked up: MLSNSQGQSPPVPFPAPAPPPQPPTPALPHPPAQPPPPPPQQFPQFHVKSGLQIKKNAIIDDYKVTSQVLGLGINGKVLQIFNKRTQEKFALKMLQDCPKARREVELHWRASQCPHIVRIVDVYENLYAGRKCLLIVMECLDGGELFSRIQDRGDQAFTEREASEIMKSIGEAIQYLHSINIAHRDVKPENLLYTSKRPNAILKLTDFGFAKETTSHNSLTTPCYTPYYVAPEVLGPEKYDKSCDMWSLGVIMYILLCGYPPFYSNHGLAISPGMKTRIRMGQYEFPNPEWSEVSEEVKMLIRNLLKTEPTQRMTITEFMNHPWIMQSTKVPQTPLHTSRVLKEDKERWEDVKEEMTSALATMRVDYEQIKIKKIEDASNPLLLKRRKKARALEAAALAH
UniProt Q9BUB5: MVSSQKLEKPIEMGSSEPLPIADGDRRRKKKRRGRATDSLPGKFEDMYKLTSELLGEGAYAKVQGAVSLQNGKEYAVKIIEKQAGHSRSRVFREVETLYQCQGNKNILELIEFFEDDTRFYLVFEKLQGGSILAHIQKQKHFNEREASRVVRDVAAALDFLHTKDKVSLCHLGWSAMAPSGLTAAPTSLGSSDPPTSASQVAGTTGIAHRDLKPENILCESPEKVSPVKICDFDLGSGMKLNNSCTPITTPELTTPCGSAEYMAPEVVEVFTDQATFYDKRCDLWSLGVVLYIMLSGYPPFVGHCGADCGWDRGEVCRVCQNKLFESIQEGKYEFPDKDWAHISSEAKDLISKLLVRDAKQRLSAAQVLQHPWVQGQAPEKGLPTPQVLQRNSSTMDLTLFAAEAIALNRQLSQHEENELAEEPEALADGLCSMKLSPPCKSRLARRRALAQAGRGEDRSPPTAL
UniProt Q16620, whole entry, looked up: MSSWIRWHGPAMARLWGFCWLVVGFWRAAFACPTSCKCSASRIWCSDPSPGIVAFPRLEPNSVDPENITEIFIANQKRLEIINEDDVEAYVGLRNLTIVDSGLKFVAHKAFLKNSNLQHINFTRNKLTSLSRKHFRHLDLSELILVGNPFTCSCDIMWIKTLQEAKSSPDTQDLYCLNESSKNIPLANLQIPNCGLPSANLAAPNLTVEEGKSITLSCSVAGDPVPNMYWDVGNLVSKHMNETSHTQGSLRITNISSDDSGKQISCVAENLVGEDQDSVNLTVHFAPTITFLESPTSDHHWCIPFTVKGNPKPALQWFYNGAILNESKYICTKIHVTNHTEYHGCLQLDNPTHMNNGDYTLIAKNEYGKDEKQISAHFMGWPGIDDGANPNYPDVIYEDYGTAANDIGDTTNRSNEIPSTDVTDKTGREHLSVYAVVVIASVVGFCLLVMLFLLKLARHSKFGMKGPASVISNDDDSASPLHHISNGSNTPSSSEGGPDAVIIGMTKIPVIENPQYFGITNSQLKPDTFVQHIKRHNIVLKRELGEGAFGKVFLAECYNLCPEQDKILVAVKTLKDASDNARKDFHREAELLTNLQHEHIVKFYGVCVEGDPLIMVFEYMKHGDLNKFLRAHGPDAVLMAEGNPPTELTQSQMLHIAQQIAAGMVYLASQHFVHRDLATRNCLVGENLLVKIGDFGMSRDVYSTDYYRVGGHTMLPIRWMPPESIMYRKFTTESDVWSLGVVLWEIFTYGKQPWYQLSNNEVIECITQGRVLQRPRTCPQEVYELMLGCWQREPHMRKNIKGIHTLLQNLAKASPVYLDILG
UniProt Q16288, whole entry, looked up: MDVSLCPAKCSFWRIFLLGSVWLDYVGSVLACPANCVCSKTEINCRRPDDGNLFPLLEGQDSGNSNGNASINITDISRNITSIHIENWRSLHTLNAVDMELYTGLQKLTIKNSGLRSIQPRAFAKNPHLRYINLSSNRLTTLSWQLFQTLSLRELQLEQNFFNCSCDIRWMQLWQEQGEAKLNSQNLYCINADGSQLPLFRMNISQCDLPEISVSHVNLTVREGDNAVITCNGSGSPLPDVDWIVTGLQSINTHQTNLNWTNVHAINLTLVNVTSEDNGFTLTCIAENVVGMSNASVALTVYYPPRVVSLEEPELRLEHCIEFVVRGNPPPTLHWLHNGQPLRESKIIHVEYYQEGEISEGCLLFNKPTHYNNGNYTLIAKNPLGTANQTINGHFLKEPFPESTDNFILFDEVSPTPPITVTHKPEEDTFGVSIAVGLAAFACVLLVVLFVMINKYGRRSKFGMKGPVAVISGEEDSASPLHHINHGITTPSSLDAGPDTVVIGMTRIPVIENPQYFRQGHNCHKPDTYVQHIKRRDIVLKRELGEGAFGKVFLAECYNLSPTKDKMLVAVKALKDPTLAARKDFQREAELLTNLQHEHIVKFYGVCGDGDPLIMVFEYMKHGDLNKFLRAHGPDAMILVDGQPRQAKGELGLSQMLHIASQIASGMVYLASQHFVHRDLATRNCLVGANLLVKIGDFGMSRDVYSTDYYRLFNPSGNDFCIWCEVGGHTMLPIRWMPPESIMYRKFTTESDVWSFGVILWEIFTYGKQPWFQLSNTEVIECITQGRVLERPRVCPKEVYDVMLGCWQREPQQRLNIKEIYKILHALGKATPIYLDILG
UniProt O96013: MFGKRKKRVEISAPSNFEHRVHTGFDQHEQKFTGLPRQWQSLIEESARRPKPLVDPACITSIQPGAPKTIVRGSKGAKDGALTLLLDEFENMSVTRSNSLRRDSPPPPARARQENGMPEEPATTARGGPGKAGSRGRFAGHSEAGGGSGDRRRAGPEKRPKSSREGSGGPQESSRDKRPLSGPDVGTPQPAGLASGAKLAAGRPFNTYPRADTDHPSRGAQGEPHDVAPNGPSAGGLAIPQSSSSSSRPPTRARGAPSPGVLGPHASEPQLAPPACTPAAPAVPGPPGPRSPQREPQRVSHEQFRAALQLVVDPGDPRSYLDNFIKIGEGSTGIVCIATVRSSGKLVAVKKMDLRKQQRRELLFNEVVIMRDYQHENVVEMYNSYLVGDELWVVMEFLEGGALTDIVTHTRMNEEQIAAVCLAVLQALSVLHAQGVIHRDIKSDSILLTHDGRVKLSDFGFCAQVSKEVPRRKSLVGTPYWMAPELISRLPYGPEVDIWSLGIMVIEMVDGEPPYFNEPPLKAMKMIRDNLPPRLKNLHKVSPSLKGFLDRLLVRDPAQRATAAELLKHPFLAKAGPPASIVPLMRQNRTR
UniProt Q96KB5: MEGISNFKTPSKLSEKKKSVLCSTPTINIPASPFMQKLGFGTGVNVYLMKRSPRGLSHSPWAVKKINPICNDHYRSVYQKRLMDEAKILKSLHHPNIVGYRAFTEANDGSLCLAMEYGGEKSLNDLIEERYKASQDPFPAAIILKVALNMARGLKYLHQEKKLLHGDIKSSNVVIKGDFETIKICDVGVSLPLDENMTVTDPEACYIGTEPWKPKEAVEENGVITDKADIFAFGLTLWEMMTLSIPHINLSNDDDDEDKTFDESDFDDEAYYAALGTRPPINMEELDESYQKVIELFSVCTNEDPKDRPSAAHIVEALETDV
UniProt P09619, whole entry: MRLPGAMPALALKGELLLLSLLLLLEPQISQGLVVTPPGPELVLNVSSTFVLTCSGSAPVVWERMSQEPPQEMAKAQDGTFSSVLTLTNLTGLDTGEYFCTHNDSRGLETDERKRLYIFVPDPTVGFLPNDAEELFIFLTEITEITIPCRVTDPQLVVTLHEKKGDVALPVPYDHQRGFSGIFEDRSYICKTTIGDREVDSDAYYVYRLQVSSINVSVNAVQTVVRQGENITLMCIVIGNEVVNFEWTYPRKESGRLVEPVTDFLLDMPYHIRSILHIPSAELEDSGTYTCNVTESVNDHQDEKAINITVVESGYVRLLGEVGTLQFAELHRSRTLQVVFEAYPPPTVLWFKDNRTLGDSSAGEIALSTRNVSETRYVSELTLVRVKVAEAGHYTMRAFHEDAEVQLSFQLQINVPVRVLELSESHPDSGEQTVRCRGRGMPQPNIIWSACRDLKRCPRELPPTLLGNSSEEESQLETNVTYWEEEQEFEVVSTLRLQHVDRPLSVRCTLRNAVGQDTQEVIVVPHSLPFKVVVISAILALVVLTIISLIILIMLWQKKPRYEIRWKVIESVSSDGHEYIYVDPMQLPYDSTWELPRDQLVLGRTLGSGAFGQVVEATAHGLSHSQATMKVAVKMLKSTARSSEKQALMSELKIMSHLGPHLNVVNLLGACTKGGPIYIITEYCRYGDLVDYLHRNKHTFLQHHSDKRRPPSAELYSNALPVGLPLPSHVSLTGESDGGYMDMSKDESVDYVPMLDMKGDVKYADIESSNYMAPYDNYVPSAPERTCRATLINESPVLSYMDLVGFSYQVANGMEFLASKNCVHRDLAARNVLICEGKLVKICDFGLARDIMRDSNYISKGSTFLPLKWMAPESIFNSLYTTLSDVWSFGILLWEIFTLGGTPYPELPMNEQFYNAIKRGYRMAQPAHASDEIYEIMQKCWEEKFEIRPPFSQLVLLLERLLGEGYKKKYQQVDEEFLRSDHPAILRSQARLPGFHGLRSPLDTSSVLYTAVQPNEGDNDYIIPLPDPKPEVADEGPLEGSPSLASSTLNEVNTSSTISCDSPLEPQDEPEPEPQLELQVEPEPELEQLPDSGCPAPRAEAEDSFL
UniProt Q15118, whole entry, looked up: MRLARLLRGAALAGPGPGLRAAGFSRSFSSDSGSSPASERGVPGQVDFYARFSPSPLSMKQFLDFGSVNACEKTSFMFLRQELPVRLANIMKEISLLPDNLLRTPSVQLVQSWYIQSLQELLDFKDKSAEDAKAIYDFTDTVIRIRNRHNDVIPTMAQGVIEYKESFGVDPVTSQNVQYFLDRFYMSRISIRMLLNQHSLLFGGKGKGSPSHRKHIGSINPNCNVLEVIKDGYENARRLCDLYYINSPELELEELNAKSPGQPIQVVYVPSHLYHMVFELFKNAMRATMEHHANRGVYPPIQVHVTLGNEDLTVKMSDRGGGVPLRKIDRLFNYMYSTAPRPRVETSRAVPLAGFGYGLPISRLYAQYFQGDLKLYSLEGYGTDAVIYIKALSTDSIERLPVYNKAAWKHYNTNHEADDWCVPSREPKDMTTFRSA

Experiments:
Assay in all cases: kinase-Nluc reporter destabilization hit call (1 = scored as downregulated) (binary); higher = compound decreases kinase abundance
Conditions in all cases: K562; 2-18 h
[1] = biological target: MAPK1 (UniProt P28482)
[2] = biological target: MAPK4 (UniProt P31152)
[3] = biological target: MAPKAPK2 (UniProt P49137)
[4] = biological target: MKNK1 (UniProt Q9BUB5)
[5] = biological target: NTRK2 (UniProt Q16620)
[6] = biological target: NTRK3 (UniProt Q16288)
[7] = biological target: PAK4 (UniProt O96013)
[8] = biological target: PBK (UniProt Q96KB5)
[9] = biological target: PDGFRB (UniProt P09619)
[10] = biological target: PDK1 (UniProt Q15118)

Measured: kinase-Nluc reporter destabilization hit call

COCCOc1cnc2ccn([C@H](C)c3nnc4c(F)cc(-c5cnn(C)c5)cn34)c(=O)c2c1 (10 µM)
inactive: [1] 0 | [2] 0 | [3] 0 | [4] 0 | [5] 0 | [6] 0 | [7] 0 | [8] 0 | [9] 0 | [10] 0

CS(=O)(=O)c1cccc(CNc2nc(Nc3ccc4c(c3)CCC(=O)N4)ncc2C(F)(F)F)c1 (10 µM)
inactive: [1] 0 | [2] 0 | [3] 0 | [4] 0 | [5] 0 | [6] 0 | [7] 0 | [8] 0 | [9] 0 | [10] 0

Cc1cccc(-c2nn3c(c2-c2ccnc4ccc(C(N)=O)cc24)CCC3)n1 [Galunisertib] (10 µM)
inactive: [1] 0 | [2] 0 | [3] 0 | [4] 0 | [5] 0 | [7] 0 | [8] 0 | [9] 0 | [10] 0

NC(=O)c1ccccc1Nc1ccnc(Nc2cccc(O)c2)n1 (10 µM)
inactive: [1] 0 | [2] 0 | [3] 0 | [4] 0 | [5] 0 | [6] 0 | [7] 0 | [8] 0 | [9] 0 | [10] 0

CNCCOc1ccccc1C1(Nc2nccn(-c3cc(C(=O)NC4CC4)cc(F)c3C)c2=O)CC1 (10 µM)
inactive: [1] 0 | [2] 0 | [3] 0 | [4] 0 | [5] 0 | [6] 0 | [7] 0 | [8] 0 | [9] 0 | [10] 0

CC(C)(C)S(=O)(=O)c1cc2c(Nc3ccc4scnc4c3)ncnc2cc1OCCOP(=O)(O)O (2 µM)
inactive: [1] 0 | [2] 0 | [3] 0 | [4] 0 | [5] 0 | [6] 0 | [7] 0 | [8] 0 | [9] 0 | [10] 0

CN1C(=O)[C@@H](NC(=O)c2cc(Cc3ccccc3)on2)COc2ccccc21 (10 µM)
inactive: [1] 0 | [2] 0 | [3] 0 | [4] 0 | [5] 0 | [6] 0 | [7] 0 | [8] 0 | [9] 0 | [10] 0

CC(C)Cn1ncc2cc(Oc3ccc(F)cc3F)c(C(=O)NCCN(C)C)cc21 [p38α inhibitor 1] (10 µM)
inactive: [1] 0 | [2] 0 | [3] 0 | [4] 0 | [5] 0 | [6] 0 | [7] 0 | [8] 0 | [9] 0 | [10] 0

NC(=O)c1c(NC(=O)C2CC2)sc2c1CCCC2 (10 µM)
inactive: [1] 0 | [2] 0 | [3] 0 | [4] 0 | [5] 0 | [6] 0 | [7] 0 | [8] 0 | [9] 0 | [10] 0

Nc1nc(Nc2ccc3c(c2)CC[C@@H](N2CCCC2)CC3)nn1-c1cc2c(nn1)-c1ccccc1CCC2 [Bemcentinib] (2.5 µM)
inactive: [1] 0 | [2] 0 | [3] 0 | [4] 0 | [5] 0 | [6] 0 | [7] 0 | [8] 0 | [9] 0 | [10] 0

C=CC(=O)Nc1cccc(Oc2nc(Nc3ccc(N4CCN(C)CC4)cc3OC)ncc2Cl)c1 (10 µM)
inactive: [1] 0 | [2] 0 | [3] 0 | [4] 0 | [6] 0 | [7] 0 | [8] 0 | [9] 0 | [10] 0

CO/N=C1/C(c2c(O)[nH]c3cc(Cl)c(Cl)cc23)=Nc2ccccc21 (10 µM)
inactive: [1] 0 | [2] 0 | [3] 0 | [4] 0 | [5] 0 | [6] 0 | [7] 0 | [8] 0 | [9] 0 | [10] 0

CC1=C(C#N)C(c2ccc3[nH]nc(C)c3c2)C(C#N)=C(C)N1 (10 µM)
inactive: [1] 0 | [2] 0 | [3] 0 | [4] 0 | [5] 0 | [6] 0 | [7] 0 | [8] 0 | [9] 0 | [10] 0

CN1CCC(Nc2ccc(C(=O)Nc3cc(-c4ccc5c(c4)OCO5)[nH]n3)cc2)CC1 (10 µM)
inactive: [1] 0 | [2] 0 | [3] 0 | [4] 0 | [5] 0 | [7] 0 | [8] 0 | [9] 0 | [10] 0

O=C(CCl)c1c[nH]c2ccccc12 (2.5 µM)
inactive: [1] 0 | [2] 0 | [3] 0 | [4] 0 | [5] 0 | [6] 0 | [7] 0 | [8] 0 | [9] 0 | [10] 0

O=c1c(O)c(-c2ccc(O)c(O)c2)oc2cc(O)c(O)c(O)c12 [Quercetagetin] (10 µM)
inactive: [1] 0 | [2] 0 | [3] 0 | [4] 0 | [5] 0 | [6] 0 | [7] 0 | [8] 0 | [9] 0 | [10] 0

COc1cc(N2CCC(N3CCN(C)CC3)CC2)ccc1Nc1ncnc(Nc2ccccc2S(=O)(=O)C(C)C)n1 (10 µM)
inactive: [1] 0 | [2] 0 | [3] 0 | [4] 0 | [6] 0 | [7] 0 | [8] 0 | [9] 0 | [10] 0

CC1=CC(=O)C(C(C)C)=C/C1=N/OC(=O)c1ccccc1C [Poloxin] (2.5 µM)
inactive: [1] 0 | [2] 0 | [3] 0 | [4] 0 | [5] 0 | [6] 0 | [7] 0 | [8] 0 | [9] 0 | [10] 0

Cc1cncc2cccc(S(=O)(=O)N3CCCNC[C@@H]3C)c12 [H-1152 (dihydrochloride)] (10 µM)
inactive: [1] 0 | [2] 0 | [3] 0 | [4] 0 | [5] 0 | [6] 0 | [7] 0 | [8] 0 | [9] 0 | [10] 0

O=C1C=CC2=C3c4cc(O)c(O)cc4CC3(O)COC2=C1O (configuration not stated) [Hematein] (10 µM)
inactive: [1] 0 | [2] 0 | [3] 0 | [4] 0 | [6] 0 | [7] 0 | [8] 0 | [9] 0 | [10] 0

CN1C(=O)N[C@@H](Cc2c[nH]c3c(Cl)cccc23)C1=O [Necrostatin 2 (S enantiomer)] (10 µM)
inactive: [1] 0 | [2] 0 | [3] 0 | [4] 0 | [6] 0 | [7] 0 | [8] 0 | [9] 0 | [10] 0

Nc1[nH]nc2nnc(-c3c(-c4ccccc4)nn4ccccc34)cc12 (10 µM)
inactive: [2] 0 | [3] 0 | [4] 0 | [5] 0 | [6] 0 | [7] 0 | [8] 0 | [9] 0 | [10] 0

CC(ONC(=O)c1cc(C(F)(F)F)cc(C(F)(F)F)c1)C(=O)Nc1ccc(Cl)cc1 (configuration not stated) (2.5 µM)
inactive: [1] 0 | [2] 0 | [3] 0 | [4] 0 | [6] 0 | [7] 0 | [8] 0 | [9] 0 | [10] 0

A draw from above in order of heavy-atom count, smallest number first:
CC1=CC(=O)C(C(C)C)=C/C1=N/OC(=O)c1ccccc1C [Poloxin] (2.5 µM)
inactive: [1] 0 | [2] 0 | [3] 0 | [4] 0 | [5] 0 | [6] 0 | [7] 0 | [8] 0 | [9] 0 | [10] 0

Nc1[nH]nc2nnc(-c3c(-c4ccccc4)nn4ccccc34)cc12 (10 µM)
inactive: [2] 0 | [3] 0 | [4] 0 | [5] 0 | [6] 0 | [7] 0 | [8] 0 | [9] 0 | [10] 0

CC(ONC(=O)c1cc(C(F)(F)F)cc(C(F)(F)F)c1)C(=O)Nc1ccc(Cl)cc1 (configuration not stated) (2.5 µM)
inactive: [1] 0 | [2] 0 | [3] 0 | [4] 0 | [6] 0 | [7] 0 | [8] 0 | [9] 0 | [10] 0

Additional compounds

Cc1cnc(Cl)nc1-c1ccc(N(Cc2ccc(CNC(=O)C(F)F)cc2)C(=O)c2ccc(O)cc2O)cc1 (10 µM)
inactive: [1] 0 | [2] 0 | [3] 0 | [4] 0 | [6] 0 | [7] 0 | [8] 0 | [9] 0 | [10] 0

CCC[C@H](C)Oc1nc(N)c2[nH]c(=O)n(CCCCCN3CCCCC3)c2n1 (10 µM)
inactive: [1] 0 | [2] 0 | [3] 0 | [4] 0 | [6] 0 | [7] 0 | [8] 0 | [9] 0 | [10] 0

Cn1cnc2c(F)c(Nc3ccc(Br)cc3F)c(C(=O)NOCCO)cc21 [Binimetinib] (10 µM)
inactive: [1] 0 | [2] 0 | [3] 0 | [4] 0 | [6] 0 | [7] 0 | [8] 0 | [9] 0 | [10] 0

CC(=O)O[C@@H]1[C@@H](OC(C)=O)[C@@H](O)[C@H](Oc2c(-c3ccc(O)cc3)oc3cc(O)cc(O)c3c2=O)O[C@H]1C (10 µM)
inactive: [1] 0 | [2] 0 | [3] 0 | [4] 0 | [6] 0 | [7] 0 | [8] 0 | [9] 0 | [10] 0

CN(C)CCOc1cc(-c2cn[nH]c2)ccc1NC(=O)C1COc2ccccc2O1 (configuration not stated) (10 µM)
inactive: [1] 0 | [2] 0 | [3] 0 | [4] 0 | [6] 0 | [7] 0 | [8] 0 | [9] 0 | [10] 0
